# Laboratory results: patent US12570603B2, “FABP4/5 inhibitors, methods of use and methods of making” (Novius Therapeutics, LLC, priority 2021, dated 2026)
# Sequences of proteins named here, by UniProt entry; tags and fusion partners are left off.
# UniProt P15090, whole entry, species assumed: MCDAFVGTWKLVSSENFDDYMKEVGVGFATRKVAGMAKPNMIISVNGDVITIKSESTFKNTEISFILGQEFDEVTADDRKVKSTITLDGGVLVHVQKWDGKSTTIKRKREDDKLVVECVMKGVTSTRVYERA
# UniProt Q01469, whole entry, species assumed: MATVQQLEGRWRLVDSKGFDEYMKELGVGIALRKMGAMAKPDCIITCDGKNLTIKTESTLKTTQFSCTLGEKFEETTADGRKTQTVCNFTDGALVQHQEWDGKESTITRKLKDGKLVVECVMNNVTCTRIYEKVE
# pKd: −log10 of the molar value. Some entries share one result that the patent states for a list of compounds.
# Tests used:
# FABP4 = target: T1, FABP4 (Homo sapiens, UniProt P15090); assay: FABP binding assay by fluorescence titration (ANS competition); settings: FIG. 1A/1B; read-out: binding affinity towards FABP4 (Kd)
# T1 construct: made in house
# Method: (§1) This example illustrates a binding assay study used to determine the binding affinity of the various inhibitor compounds disclosed herein with the various FABPs: FABP3, FABP4, FABP5 and FABP7.
# (§2) Binding assays for FABP3, FABP4, FABP5 and FABP7 were carried out by fluorescence titrations. FABPs were bacterially expressed and purified and the equilibrium dissociation constants (Kd) that characterize their interactions with different compounds were measured by fluorescence competition assays. The method entails two steps as described in e.g., Lin, Q. et al., “Ligand selectivity of the peroxisome proliferator-activated receptor alpha,” Biochemistry 38, 185-190, doi:10.1021/bi9816094 bi9816094 [pii](1999). In the first step, Kd for the association of the protein with the fluorescent fatty acid probe ANS was measured. Protein ([…]) was titrated with ANS from a concentrated solution in DMSO. Ligand binding was monitored by following the increase in the fluorescence of the ligand upon binding to the protein, and Kd for the association of ANS with the each FABP was computed from titration curves as described in e.g., Norris, A. W. & Li, E., “Fluorometric titration of the CRABPs,” Methods Mol Biol 89, 123-139 (1998)). Kds for binding of non-fluorescent ligands were then measured by monitoring their ability to displace ANS in the binding pocket of the protein. Each FABP was pre-complexed with ANS at 1:1 molar ratio and titrated with the different compounds whose binding was reflected by a decrease in probe fluorescence. Kds were extracted from the EC50 of the competition curve and the measured Kd for ANS.
# (§3) Binding assays for FABP3, FABP4, FABP5 and FABP7 were carried out by fluorescence titrations as described in Example 16.
# FABP5 = target: T2, FABP5 (Homo sapiens, UniProt Q01469); assay: as above; settings: FIG. 1A/1B; read-out: binding affinity towards FABP5 (Kd)
# T2 construct: made in house
# Method: as §1, §2, §3
compound,measurement,setting,value
O=C(O)CSCC(=O)Nc1cc(OCc2ccccc2)c(Cl)cc1Cl [Compound B7],pKd,FABP4,> 6.00
same,pKd,FABP5,> 6.00
C#CCOc1cc(NC(=O)CSCC(=O)O)c(Cl)cc1Cl [Compound B9],pKd,FABP4,> 6.00
same,pKd,FABP5,> 6.00
